{
  "source": "PubChem BioAssay AID504467",
  "about": "(National Center for Advancing Translational Sciences (NCATS), 2011)",
  "note": "Screen size: about 330,000 compounds; about 7,700 (2.3%) were called active. The shares of active, inactive and inconclusive entries below differ from those in the screen. The call rests on the fitted dose curve; in most records, active means well fitted inhibition curve with a large enough effect; inconclusive means small, poorly fitted or top-dose-only effect, or effect the other way; inactive means flat fitted curve, though single readings scatter. Potencies of inconclusive entries are doubtful fits and often do not repeat. Potency means the concentration at half of the fitted maximal effect.",
  "data": [
    {"assay": "qHTS screen for small molecules that inhibit ELG1-dependent DNA repair in human embryonic kidney (HEK293T) cells expressing luciferase-tagged ELG1; further: nearly all actives have a fitted effect of over 55% in size", "conditions": "HEK293T ELG1-luciferase reporter, luminescence, 16 h, DNA damage induced by 5-fluorouridine; series mostly up to 46.1 µM", "method_in_brief": "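In this reporter screen, reduction of luminescence relative to DMSO vehicle indicated activity. Compounds and 5-fluorouridine were added together to 2,000 cells per well, incubated for 16 hr at 37 °C, then developed with ONE-Glo.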", "values": [
      {"compound": "COc1ccc(C(=O)Nc2ccc(Cl)c(S(=O)(=O)N3CCOCC3)c2)cc1", "Potency": "active: 9.2 µM"},
      {"compound": "O=C(Cc1ccc(Br)cc1)c1ccc(O)cc1O", "Potency": "inconclusive: 14.6 µM [activator, partial curve]"},
      {"compound": "O=C(CCCn1c(=S)[nH]c2cc3c(cc2c1=O)OCO3)N1CCN(c2ccc(F)cc2)CC1", "Potency": "active: 16.4 µM"},
      {"compound": "CCOc1ccc(N=c2scc(-c3ccc(OC)cc3)n2CCO)cc1", "Potency": "active: 10.3 µM"},
      {"compound": "O=C1C2C3C=CC(C3)C2C(=O)N1c1cccc2ccccc12", "note": "(stereo unspecified)", "Potency": "inactive"},
      {"compound": "CCOc1ccc(S(=O)(=O)Nc2cccc(C)c2)c2cccnc12", "Potency": "inactive"},
      {"compound": "COc1cc(NC(=O)NCCN2CCN(c3ccc(Cl)cc3)CC2)ccc1C", "Potency": "inconclusive: 2.31 µM [inhibitor, full curve, poor fit]"},
      {"compound": "O=C1/C(=C/c2ccccc2)SC(=S)N1CC(=O)N1CCCCC1c1cccnc1", "note": "(stereo unspecified)", "Potency": "inconclusive: 20.6 µM [inhibitor, partial curve, poor fit]"},
      {"compound": "COc1cccc(/C=N/NC(=O)c2cc(-c3cccn3C)n[nH]2)c1", "Potency": "inconclusive: 23.1 µM [inhibitor, partial curve, poor fit]"},
      {"compound": "COc1cc2c(C(=O)NCCCN3CC(C)CC(C)C3)cn(CC(C)C)c(=O)c2cc1OC", "note": "(stereo unspecified)", "Potency": "inconclusive: 10.3 µM [activator, single point]"},
      {"compound": "Cc1nc(NC(=O)CSc2nnc(C3CC3)n2C)sc1C", "Potency": "inconclusive: 20.6 µM [activator, single point]"},
      {"compound": "CCOC(=O)c1cc(C#N)c(=S)[nH]c1C", "Potency": "inactive"},
      {"compound": "O=C(NCCCn1ccnc1)Nc1ccc2c(c1)OCO2", "Potency": "inconclusive: 16.4 µM [activator, partial curve]"},
      {"compound": "Cc1cc(NC(=O)COc2ccc(Cl)cc2Cl)n(-c2ccccc2)n1", "Potency": "inconclusive: 18.4 µM [inhibitor, single point]"},
      {"compound": "CN(CCO)c1nc2c(c(=O)n(Cc3ccc(Cl)cc3)c(=O)n2C)n1C", "Potency": "inconclusive: 18.3 µM [inhibitor, single point]"},
      {"compound": "O=C1Nc2ccccc2C12Nc1ccccc1S2", "note": "(stereo unspecified)", "Potency": "inconclusive: 9.2 µM [activator, single point]"},
      {"compound": "COc1ccc(NC(=O)c2ccc3nc[nH]c3c2)cc1", "Potency": "inconclusive: 18.3 µM [activator, partial curve]"},
      {"compound": "CC(=O)Oc1ccc(C(=O)Nc2cccc(-c3nnc(-c4ccco4)o3)c2)cc1", "Potency": "inconclusive: 16.4 µM [inhibitor, single point]"},
      {"compound": "COc1ccc(/C(C)=N/Nc2nc3ccccc3nc2C)cc1", "Potency": "inconclusive: 29.1 µM [inhibitor, single point]"},
      {"compound": "CC(Oc1ccc(Cl)cc1Cl)C(=O)Nc1ccncc1", "note": "(stereo unspecified)", "Potency": "active: 5.8 µM"},
      {"compound": "COc1ccc(NC(=S)N2CCC(Cc3ccccc3)CC2)cc1OC", "Potency": "inactive"},
      {"compound": "O=C(Nc1ccc(Cl)c(Cl)c1)OCc1cnc(Cl)s1", "Potency": "inconclusive: 18.4 µM [activator, partial curve, poor fit]"},
      {"compound": "COc1cc(Br)c(CN2C(=O)NC3(CCCCCC3)C2=O)cc1OC", "Potency": "inconclusive: 11.6 µM [activator, partial curve, poor fit]"},
      {"compound": "CC(=O)N1N=C2c3ccccc3CCC2C1c1ccc(F)cc1", "note": "(stereo unspecified)", "Potency": "inconclusive: 23.1 µM [inhibitor, partial curve]"},
      {"compound": "COc1ccc(-c2noc(CCC(=O)N3CCN(c4ccccc4OC)CC3)n2)cc1", "Potency": "inconclusive: 18.3 µM [inhibitor, single point]"},
      {"compound": "O=C(c1ccc(Cl)c(S(=O)(=O)N2CCOCC2)c1)N1CCN(c2ccccc2F)CC1", "Potency": "inconclusive: 16.4 µM [inhibitor, partial curve]"},
      {"compound": "Cc1cc(C)c2c(N)c(S(=O)(=O)c3ccccc3)sc2n1", "Potency": "inconclusive: 13 µM [inhibitor, partial curve, poor fit]"},
      {"compound": "CC1CCCC(C)N1C(=O)COC(=O)c1ccccc1O", "note": "(stereo unspecified)", "Potency": "inconclusive: 20.6 µM [activator, partial curve]"},
      {"compound": "CC(=O)Nc1ccc(S(=O)(=O)N2CCC(NC(=O)c3ccccc3)CC2)cc1", "Potency": "inconclusive: 18.3 µM [inhibitor, single point]"},
      {"compound": "Cc1[nH]c2ccccc2c1C(=O)C(=O)N1CCCc2ccccc21", "Potency": "inconclusive: 23.1 µM [inhibitor, partial curve]"},
      {"compound": "CCOC(=O)c1c(C)[nH]c(C(=O)CN(C)CC(=O)Nc2ccccc2Cl)c1C", "Potency": "inconclusive: 29.1 µM [inhibitor, single point]"},
      {"compound": "O=C(C1=C[C@H](C2CCCCC2)C[C@H](OCCCCO)O1)N1CCOCC1", "Potency": "inconclusive: 18.3 µM [inhibitor, partial curve, poor fit]"},
      {"compound": "Cc1sc2ncnc(Sc3nc4ccccc4s3)c2c1C", "Potency": "inconclusive: 13 µM [activator, partial curve]"},
      {"compound": "COc1cc(OC)cc(C(=O)NNC(=O)c2ccc(S(=O)(=O)N(C)c3ccccc3OC)cc2)c1", "Potency": "active: 14.6 µM"},
      {"compound": "COc1ccc2c(c1)C1NC(=S)NC(C)(O2)C1C(=O)Nc1ccc(C)cc1C", "note": "(stereo unspecified)", "Potency": "inactive"},
      {"compound": "Cc1ccc(S(=O)(=O)CCC(=O)Nc2sccc2C(N)=O)cc1", "Potency": "inactive"},
      {"compound": "Cc1ccc(N(CC(=O)N/N=C/c2cccnc2)S(=O)(=O)c2ccccc2)cc1", "Potency": "inconclusive: 1.16 µM [inhibitor, single point]"},
      {"compound": "COC(=O)c1ccc2c(c1)NC1=C(C(=O)CC(C)(C)C1)C(c1ccncc1)N2", "note": "(stereo unspecified)", "Potency": "inconclusive: 25.9 µM [activator, single point]"},
      {"compound": "C/C=C/c1ccc(OCCCCN2CC(C)CC(C)C2)c(OC)c1", "note": "(stereo unspecified)", "Potency": "inactive"},
      {"compound": "OC(COc1ccc2c(c1)CCC2)Cn1cnc2ccccc21", "note": "(stereo unspecified)", "Potency": "inactive"},
      {"compound": "Cc1nc2ccc(-n3ccc(=O)cc3)cc2s1", "Potency": "inconclusive: 16.4 µM [activator, single point]"},
      {"compound": "CC(=N\\NC(=O)c1ccccc1)/C(=N/O)C(=O)Nc1ccccc1", "Potency": "inactive"},
      {"compound": "Cc1ccc(O)c(/C=N/NC(=O)COc2ccc3c(C)cc(=O)oc3c2)c1", "Potency": "inconclusive: 18.3 µM [inhibitor, single point]"},
      {"compound": "Cc1cc(C(=O)COC(=O)c2ccc(NC(=O)CC#N)cc2)c(C)n1CCc1ccc(F)cc1", "Potency": "inactive"},
      {"compound": "O=C(Nc1ccc([N+](=O)[O-])cc1)Nc1nc(-c2ccc(Cl)s2)cs1", "Potency": "active: 10.3 µM"},
      {"compound": "COc1cccc(NC(=O)CSc2nc(=O)n(Cc3ccncc3)c3c2CCCC3)c1", "Potency": "inactive"},
      {"compound": "CN1C(=O)/C(=N/OC(=O)c2ccccc2)c2ccccc21", "Potency": "inconclusive: 25.9 µM [activator, single point]"},
      {"compound": "COc1ccc(CCNC(=O)NC23CC4CC(CC(C4)C2)C3)cc1OC", "Potency": "inconclusive: 2.82 µM [activator, single point]"},
      {"compound": "CCOC(=O)c1c(C)oc2c1c(C=NCCC(=O)O)c(O)c1ccccc12", "Potency": "inactive"},
      {"compound": "COC(=O)c1cccc(C#CC(NP(=O)(c2ccccc2)c2ccccc2)c2ccccc2)c1", "note": "(stereo unspecified)", "Potency": "inconclusive: 29.1 µM [inhibitor, single point]"},
      {"compound": "O=C(c1cc2sccc2n1Cc1ccccc1)N1CCN(c2nc3ccccc3s2)CC1", "Potency": "inactive"},
      {"compound": "COc1ccc(S(=O)(=O)N2CCCN(CC(=O)C(C)(C)C)CC2)cc1", "Potency": "inconclusive: 0.164 µM [inhibitor, single point]"},
      {"compound": "COc1ccc([C@H]2CC(=O)C=C(c3ccccc3OC)C2)cc1OC", "Potency": "inconclusive: 32.6 µM [inhibitor, single point]"},
      {"compound": "COc1ccc(C2NC(=O)NC(C)=C2C(=O)OCc2ccc3c(c2)OCO3)cc1OC", "note": "(stereo unspecified)", "Potency": "active: 10.3 µM"},
      {"compound": "O=[N+]([O-])c1ccc(N2CCc3ccccc3C2)nc1", "Potency": "inconclusive: 20.6 µM [activator, single point]"},
      {"compound": "CCOC(=O)C1=NN(c2ccc(Cl)cc2)/C(=C/C2=NCCc3cc(OC)c(OC)cc32)S1", "Potency": "inconclusive: 0.231 µM [activator, single point]"},
      {"compound": "CCOC(=O)C1(CC2CC2)CCN(Cc2cnc(-c3ccc(OC)cc3)nc2)CC1", "Potency": "inconclusive: 32.6 µM [inhibitor, partial curve, poor fit]"},
      {"compound": "Cc1ccccc1/C=N/NC(=O)Cc1ccc(Cl)cc1", "Potency": "inactive"},
      {"compound": "NNC(=O)CCC(=O)Nc1ccccc1", "Potency": "inactive"},
      {"compound": "Cc1ccc(C(=O)N2CCC(C)CC2)cc1NC1=NC2CS(=O)(=O)CC2S1", "note": "(stereo unspecified)", "Potency": "inactive"},
      {"compound": "Cc1ccc2nc(N3C(=O)C(O)=C(C(=O)c4ccc(C)o4)C3c3cccc(O)c3)sc2c1", "note": "(stereo unspecified)", "Potency": "inactive"},
      {"compound": "COc1cccc(/C=N/NC(=O)C[n+]2ccccc2)c1O", "Potency": "inconclusive: 16.4 µM [activator, partial curve, poor fit]"},
      {"compound": "Nc1ccc(/C=C/c2ccc3ncccc3c2)cc1", "Potency": "inconclusive: 2.31 µM [activator, partial curve]"},
      {"compound": "O=C(COC(=O)/C=C/c1ccc(OC(F)F)cc1)NC1CCCC1", "Potency": "inactive"},
      {"compound": "O=C(Nc1ccccc1)O/N=C(\\c1ccccc1)c1ccccn1", "Potency": "inconclusive: 23.1 µM [activator, partial curve, poor fit]"},
      {"compound": "N#CCCn1cc(C(=O)Nc2ccc(C(=O)O)cc2)c(-c2cccc(Br)c2)n1", "Potency": "inactive"},
      {"compound": "COC(=O)c1ccc(N/C=C\\C(=O)c2ccc3c(c2)OCO3)cc1", "Potency": "inconclusive: 3.66 µM [activator, partial curve, poor fit]"},
      {"compound": "Cc1cc(C)cc(C(=O)Nc2nnc(SCC(=O)NCC3CCCO3)s2)c1", "note": "(stereo unspecified)", "Potency": "inactive"},
      {"compound": "NS(=O)(=O)c1ccc(NC(=O)CN2CCc3ccccc32)cc1", "Potency": "inactive"},
      {"compound": "O=C1C=C(c2ccccc2)C(=O)N1Nc1ccccc1", "Potency": "inconclusive: 29.1 µM [activator, single point]"},
      {"compound": "Cc1ccc(SCc2nn(C)c(Cl)c2C=O)cc1", "Potency": "inconclusive: 14.6 µM [activator, partial curve]"}
    ]}
  ]
}
